# Screen size: about 320,000 compounds; about 22,000 (6.9%) were called active. Inconclusive results, whose numbers are uncertain, are shown with a selection of clear calls. The call rests on the fitted dose curve; in most records, active means well fitted inhibition curve with a large enough effect; inconclusive means small, poorly fitted or top-dose-only effect, or another doubt; inactive means no such curve, though single readings can be large or run the other way. Where the call is inconclusive, the potency comes from a doubtful curve fit.
# Experiment: Primary qHTS for delayed death inhibitors of the malarial parasite plastid, 96 hour incubation
# Settings: P. falciparum luciferase reporter growth; series mostly up to 28.7 µM; activity change, negative = inhibition: at the top concentration
# Outline: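 Delayed-death screen, second-generation endpoint: infected erythrocytes, 2% hematocrit, 0.05% parasitemia final; 96 hours at 37 C, 5% CO2; luciferase detection reagent; luminescence decrease equals reduced growth.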
# On the % scale 0 is the no-effect control and ±100 the full control effect; potency means the concentration at half of the fitted maximal effect.
SMILES,Potency,"activity change, negative = inhibition"
COCCn1c(=NC(=O)c2nc3ccccc3s2)sc2cc(S(C)(=O)=O)ccc21,"inconclusive: 0.928 µM [inhibitor, partial curve, poor fit]",
Cc1cc(=O)n2nc(N3CCC(C(=O)NCc4ccc(Cl)cc4)CC3)sc2n1,,inactive: 51.1%
Cc1ccc(-c2nc3ccccn3c2NC(=O)c2ccco2)cc1,"inconclusive: 13.1 µM [inhibitor, partial curve, poor fit]",
C/C(=N\NC(=O)C1CC1)c1ccccc1O,"inconclusive: 5.22 µM [inhibitor, partial curve]",
Cc1csc(CN(C)C(=O)CC2C(=O)NCCN2Cc2ccc(Cl)c(F)c2)n1 (stereo not drawn),active: 9.28 µM,
C=C(C)CSc1nc2c(c(=O)[nH]c(=O)n2C)n1Cc1ccccc1,"inconclusive: 9.28 µM [inhibitor, partial curve]",
O=c1c2ccccc2nnn1Cc1ccccc1Cl,"inconclusive: 1.17 µM [inhibitor, full curve, poor fit]",
COc1ccccc1-n1ccnc(SCC(=O)NCCc2ccccc2)c1=O,,inactive: 2.06%
COc1ccc(S(=O)(=O)N2CCCCC2)cc1NC(=S)Nc1ccccc1,"inconclusive: 8.28 µM [inhibitor, partial curve, poor fit]",
Cc1ccccc1NC(=O)C1CCN(C(=O)NC2CCCCC2)CC1,,inactive: 14.1%
CC(C)CCNC(=O)C(=O)NC1CCCC1,,inactive: 17.8%
CC1=C(C(=O)OCc2ccccc2)C(/C=C/c2ccccc2)NC(=S)N1 (stereo not drawn),"inconclusive: 18.5 µM [inhibitor, single point]",
O=C(O)CCN1/C(=C/C=Nc2ccccc2)Oc2ccccc21,"inconclusive: 10.4 µM [inhibitor, partial curve, poor fit]",
CCCCn1c(=O)c(CCC(=O)OCC(=O)NC(=O)NCCOC)nc2ccccc21,,inactive: 9.93%
Cc1ccc(NC(=O)CN(C)C(=O)c2ccc(NC(=O)CC3SC(N4CCCC4)=NC3=O)cc2)cc1 (stereo not drawn),"inconclusive: 10.4 µM [inhibitor, single point]",
CCCCNc1c(-c2ccc(-c3cccc(Cl)c3)cc2)nc2ccccn12,"inconclusive: 18.5 µM [inhibitor, single point]",
Oc1c(Br)cc(/C=N/n2c(-c3ccccc3)n[nH]c2=S)cc1Br,"inconclusive: 18.5 µM [inhibitor, single point]",
Cc1noc(C)c1C(=O)OCC(=O)c1ccc[nH]1,,inactive: -16.5%
CCc1ccc(NC(=O)C2CCCN2C(=O)NC2CCCCC2)cc1 (stereo not drawn),,inactive: 8.56%
CC(=O)c1ccc(N2CCN(C(=O)c3ccc(C(=O)c4ccccc4)cc3)CC2)cc1,active: 5.22 µM,
O=C(O)c1ccc2nc(-c3ccco3)c(-c3ccco3)nc2c1,,inactive: 1.06%
COc1ccc(C(=O)C2CCCN(C(=O)c3cc(C4CC4)[nH]n3)C2)c(C)c1 (stereo not drawn),active: 14.7 µM,
COC(=O)c1ccc(-c2nn(C)c(=O)c3ccccc23)cc1,"inconclusive: 11.7 µM [inhibitor, single point]",
Cc1cc(C)cc(N(CC(=O)NCc2ccco2)S(=O)(=O)c2c(C)noc2C)c1,"inconclusive: 10.4 µM [inhibitor, single point]",
CC(C)(C)c1ccc(S(=O)(=O)NCc2ccc(C(=O)N3CCOCC3)cc2)cc1,"inconclusive: 18.5 µM [inhibitor, single point]",

# Looked up above.
# Entry of CCc1ccc(NC(=O)C2CCCN2C(=O)NC2CCCCC2)cc1 (stereo not drawn) under activity change, negative = inhibition: inactive: 8.56%
# Entry of COc1ccc(C(=O)C2CCCN(C(=O)c3cc(C4CC4)[nH]n3)C2)c(C)c1 (stereo not drawn) under Potency: active: 14.7 µM
# Entry of COC(=O)c1ccc(-c2nn(C)c(=O)c3ccccc23)cc1 under Potency: inconclusive: 11.7 µM [inhibitor, single point]
# Entry of O=C(O)c1ccc2nc(-c3ccco3)c(-c3ccco3)nc2c1 under activity change, negative = inhibition: inactive: 1.06%

# (further entries)

SMILES,Potency,"activity change, negative = inhibition"
Clc1ccccc1OCc1nnc(-c2ccccc2)o1,,inactive: 10.4%
O=C(NC12CC3CC(CC(C3)C1)C2)c1ccc(-c2ccc(Cl)cc2)o1,"inconclusive: 7.38 µM [inhibitor, single point]",
O=C(CN1C(=O)c2ccccc2S1(=O)=O)NC1CCCCCC1,"inconclusive: 0.117 µM [inhibitor, full curve, poor fit]",
COCCn1c(SCC(=O)NCc2ccco2)nnc1C(C)C,,inactive: -3.45%
CC(=O)c1sc(NC(=O)COc2ccc(Cl)cc2Cl)nc1C,"inconclusive: 0.465 µM [inhibitor, partial curve, poor fit]",
CN(C)c1ccc(C(=O)c2ccccc2)cc1,,inactive: 133%
Cc1occc1-c1nnc(SCC(=O)Nc2nccs2)n1CCc1ccccc1,"inconclusive: 5.86 µM [inhibitor, partial curve, poor fit]",
COCCNc1nc(SCc2ccccc2)nc2sc3c(c12)CCC3,"inconclusive: 9.28 µM [inhibitor, partial curve]",
CCCOc1ccc(NC(=O)CC2C(=O)N(Cc3ccccc3)C(=S)N2Cc2cccs2)cc1 (stereo not drawn),"inconclusive: 18.5 µM [inhibitor, single point]",
CC/C=C/C(=O)N1CC2(CC(c3cccc(NC(=O)CC(c4ccccc4)c4ccccc4)c3)=NO2)C[C@@H]1C(N)=O (stereo partly drawn),"inconclusive: 18.5 µM [inhibitor, single point]",
CC1(C)Cc2noc(N)c2C(C)(C)N1O,,inactive: 5.1%
COC(=O)C1=C(C)Nc2[nH]c(=S)[nH]c(=O)c2C1c1ccc(OC)cc1 (stereo not drawn),,inactive: 6.15%
Cc1ccc(C(=O)CC(C(=O)O)n2cnc([N+](=O)[O-])n2)cc1 (stereo not drawn),"inconclusive: 18.5 µM [inhibitor, single point]",
CCn1c(SCC(=O)N2CCOCC2)nc2c([nH]c3ccccc32)c1=O,active: 13.1 µM,
CCCn1c(N2CCN(C(=O)/C=C/C(=O)O)CC2)nc2ccccc21,,inactive: 163%
Cn1c(-c2sc3cc(C(F)(F)F)cnc3c2-c2ccccn2)n[nH]c1=S,"inconclusive: 18.5 µM [inhibitor, single point]",
O=C(Cn1nnc(-c2cccs2)n1)OC1CCCCC1,"inconclusive: 1.85 µM [inhibitor, full curve, poor fit]",
COc1ccc(C(=O)NC(C)c2ccc(-n3ccnc3)cc2)cc1S(=O)(=O)N1CCOCC1 (stereo not drawn),,inactive: -22.7%
CC(C)Cn1c(-c2cc(Br)ccc2F)nc2c1c(=O)[nH]c(=O)n2CC(C)C,"inconclusive: 8.28 µM [inhibitor, partial curve, poor fit]",
NC(=O)CSc1nnc(-c2ccccc2)c(-c2ccccc2)n1,"inconclusive: 0.147 µM [inhibitor, partial curve, poor fit]",
CCN(C(=O)CSc1ccc2c(c1)OCCO2)C1CCS(=O)(=O)C1 (stereo not drawn),"inconclusive: 8.28 µM [inhibitor, partial curve, poor fit]",
NC(=O)C1(N2CCCCC2)CCN(CC(=O)Nc2cc(Cl)ccc2Cl)CC1,,inactive: 18.1%
O=S(=O)(c1ccc(Br)cc1)N1CCCc2ccccc21,"inconclusive: 16.5 µM [inhibitor, single point]",
Cc1occc1-c1nnc(SCC(=O)N2CCN(c3ccccc3)CC2)n1C,"inconclusive: 13.1 µM [inhibitor, single point]",

SMILES,Potency,"activity change, negative = inhibition"
C=C1CCN([C@@H](C)C(=O)NCc2cc(OC)c(OC)c(OC)c2)S(=O)(=O)c2ccccc21,"inconclusive: 9.28 µM [inhibitor, single point]",
O=C(Nc1cccc(-n2cnnn2)c1)c1ccc(OC(F)(F)F)cc1,,inactive: -4.42%
CSc1nc(=NC(C)=O)ss1,active: 5.22 µM,
CCCCn1c(-c2ccco2)n[nH]c1=S,,inactive: 8.13%
COc1cc(OC)c(OC)cc1/C=N/NC(=O)c1cc(-c2cccn2C)n[nH]1,"inconclusive: 0.0026 µM [inhibitor, full curve, poor fit]",
Cn1cccc1CC(=O)NNC(=S)Nc1ccc(Cl)cc1,,inactive: 43.1%
Cc1nn(-c2ccccc2)c(Cl)c1C(=O)NCC(C)c1ccccc1 (stereo not drawn),"inconclusive: 13.1 µM [inhibitor, partial curve, poor fit]",
O=C(c1ccccc1)N1CCN(C(=O)c2ccccc2)C1c1ccccc1,,inactive: -26.8%
O=C(C1CCN(S(=O)(=O)c2cccc3cccnc23)CC1)N1CCN(c2ccc(Cl)cc2)CC1,,inactive: -25.3%
CCC1CCCCN1CCNS(=O)(=O)c1ccc2c(c1)oc(=O)n2C (stereo not drawn),,inactive: -20.5%
COc1ccc(-c2csc3ncnc(N4CCN(S(=O)(=O)c5ccc(C)c(C)c5)CC4)c23)cc1,"inconclusive: 4.15 µM [inhibitor, partial curve]",
CC1(C)CC(CCNC(=O)CCl)(c2ccccc2)CCO1 (stereo not drawn),"inconclusive: 3.29 µM [inhibitor, full curve, poor fit]",
O=S(=O)(c1cc(Cl)ccc1Br)N1CCOCC1,"inconclusive: 11.7 µM [inhibitor, partial curve, poor fit]",
O=C(O)CN1C(=O)c2ccc(C(=O)c3ccccc3)cc2C1=O,,inactive: 17.3%
OCCC1CN(Cc2cccn2-c2ccccn2)CCN1C1CCCC1 (stereo not drawn),"inconclusive: 11.7 µM [inhibitor, single point]",
O=c1c2cc(Cl)cc(Cl)c2nc2n1CCC2,,inactive: 9.33%
Cc1c(C(=O)N2CCCCCC2)c(S(=O)(=O)NCc2ccccc2Cl)c(C)n1C,,inactive: 24.7%
Cc1ccc(NC(=O)C2CC(O)CN2C(=O)Oc2ccccc2)c(C)c1 (stereo not drawn),"inconclusive: 13.1 µM [inhibitor, single point]",
COc1cccc(CNC(=O)Cn2cccc2C(=O)c2ccccc2C)c1,"inconclusive: 11.7 µM [inhibitor, single point]",
O=C(NC1CCCCC1)N1CCc2ccccc21,,inactive: 4.56%
Cc1ccccc1NC(=O)COC(=O)c1cc(S(=O)(=O)N2CCOCC2)ccc1C,,inactive: -1.13%
CCOC(=O)C(NC(=O)NCc1cccc(C(F)(F)F)c1)(OCC)C(F)(F)F (stereo not drawn),"inconclusive: 4.15 µM [inhibitor, single point]",
O=C(NCc1cccs1)c1ccc([N+](=O)[O-])cc1,"inconclusive: 18.5 µM [inhibitor, single point]",
